{"sequences": {"note": "Protein sequences, listed by entry. Tags and fused reporters are not part of them. Lines headed by an entry give the natural chain unless they say otherwise; changes in a name come on top.", "UniProt Q9H6R7": "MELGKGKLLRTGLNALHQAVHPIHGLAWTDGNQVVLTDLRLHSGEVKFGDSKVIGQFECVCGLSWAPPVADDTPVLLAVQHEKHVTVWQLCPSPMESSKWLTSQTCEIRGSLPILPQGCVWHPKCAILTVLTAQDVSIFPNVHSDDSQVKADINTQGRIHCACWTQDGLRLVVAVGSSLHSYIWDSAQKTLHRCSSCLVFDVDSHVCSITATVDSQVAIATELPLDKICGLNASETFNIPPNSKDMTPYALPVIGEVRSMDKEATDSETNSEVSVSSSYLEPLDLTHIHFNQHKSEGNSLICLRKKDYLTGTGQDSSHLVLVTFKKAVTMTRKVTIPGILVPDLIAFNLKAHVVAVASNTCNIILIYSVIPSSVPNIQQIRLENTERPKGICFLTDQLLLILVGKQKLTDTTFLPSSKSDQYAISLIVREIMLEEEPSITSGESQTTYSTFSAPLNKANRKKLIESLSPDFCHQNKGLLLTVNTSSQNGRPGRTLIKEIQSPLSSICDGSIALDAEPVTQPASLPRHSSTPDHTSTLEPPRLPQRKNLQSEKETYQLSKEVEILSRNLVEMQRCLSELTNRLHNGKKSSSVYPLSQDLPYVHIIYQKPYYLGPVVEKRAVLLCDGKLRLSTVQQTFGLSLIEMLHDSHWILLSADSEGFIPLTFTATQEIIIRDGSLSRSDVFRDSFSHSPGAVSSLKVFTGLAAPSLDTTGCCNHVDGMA", "UniProt P24863": "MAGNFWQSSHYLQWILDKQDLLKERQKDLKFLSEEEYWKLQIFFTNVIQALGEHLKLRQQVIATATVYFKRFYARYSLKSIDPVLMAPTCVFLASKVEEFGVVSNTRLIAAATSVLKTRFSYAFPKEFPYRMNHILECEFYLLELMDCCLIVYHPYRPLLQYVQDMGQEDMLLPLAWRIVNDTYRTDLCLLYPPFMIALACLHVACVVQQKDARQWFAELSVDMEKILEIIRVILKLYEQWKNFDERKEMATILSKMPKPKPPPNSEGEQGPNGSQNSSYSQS", "UniProt Q7Z6B0": "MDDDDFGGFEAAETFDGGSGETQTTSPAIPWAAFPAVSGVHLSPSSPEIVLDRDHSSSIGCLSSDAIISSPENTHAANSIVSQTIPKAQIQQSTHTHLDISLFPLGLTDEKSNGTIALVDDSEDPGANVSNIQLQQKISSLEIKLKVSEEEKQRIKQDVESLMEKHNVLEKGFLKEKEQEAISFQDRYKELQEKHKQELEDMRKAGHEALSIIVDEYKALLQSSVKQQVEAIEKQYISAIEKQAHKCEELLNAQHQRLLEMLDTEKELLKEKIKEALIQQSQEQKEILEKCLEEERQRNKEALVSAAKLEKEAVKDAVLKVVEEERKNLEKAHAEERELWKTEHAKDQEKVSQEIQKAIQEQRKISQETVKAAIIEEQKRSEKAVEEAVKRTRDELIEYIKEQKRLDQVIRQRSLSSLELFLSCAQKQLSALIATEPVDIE", "UniProt P42575": "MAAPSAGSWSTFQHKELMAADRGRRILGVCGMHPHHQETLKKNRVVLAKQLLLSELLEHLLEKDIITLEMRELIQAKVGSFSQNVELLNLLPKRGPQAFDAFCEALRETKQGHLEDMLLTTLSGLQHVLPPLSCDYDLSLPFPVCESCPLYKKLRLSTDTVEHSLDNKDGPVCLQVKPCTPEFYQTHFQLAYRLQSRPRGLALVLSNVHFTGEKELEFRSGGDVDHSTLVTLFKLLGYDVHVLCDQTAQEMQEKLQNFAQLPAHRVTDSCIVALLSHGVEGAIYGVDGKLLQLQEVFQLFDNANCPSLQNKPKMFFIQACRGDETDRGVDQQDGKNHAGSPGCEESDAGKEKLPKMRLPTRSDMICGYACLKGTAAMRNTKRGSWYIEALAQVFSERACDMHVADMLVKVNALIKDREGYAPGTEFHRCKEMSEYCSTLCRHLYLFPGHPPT", "UniProt Q9H7E9": "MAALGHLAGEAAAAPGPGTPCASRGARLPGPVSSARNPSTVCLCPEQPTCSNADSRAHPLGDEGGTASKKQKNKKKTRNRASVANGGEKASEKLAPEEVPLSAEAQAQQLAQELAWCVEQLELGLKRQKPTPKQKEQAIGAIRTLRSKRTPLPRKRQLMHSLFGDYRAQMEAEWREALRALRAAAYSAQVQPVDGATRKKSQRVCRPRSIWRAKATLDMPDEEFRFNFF", "UniProt Q2NKX9": "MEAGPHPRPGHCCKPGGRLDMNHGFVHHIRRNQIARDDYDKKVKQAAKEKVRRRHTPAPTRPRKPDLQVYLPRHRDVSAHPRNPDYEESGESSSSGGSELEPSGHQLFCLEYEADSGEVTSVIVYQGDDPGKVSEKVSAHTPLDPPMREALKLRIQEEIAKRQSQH", "UniProt O60563, whole entry": "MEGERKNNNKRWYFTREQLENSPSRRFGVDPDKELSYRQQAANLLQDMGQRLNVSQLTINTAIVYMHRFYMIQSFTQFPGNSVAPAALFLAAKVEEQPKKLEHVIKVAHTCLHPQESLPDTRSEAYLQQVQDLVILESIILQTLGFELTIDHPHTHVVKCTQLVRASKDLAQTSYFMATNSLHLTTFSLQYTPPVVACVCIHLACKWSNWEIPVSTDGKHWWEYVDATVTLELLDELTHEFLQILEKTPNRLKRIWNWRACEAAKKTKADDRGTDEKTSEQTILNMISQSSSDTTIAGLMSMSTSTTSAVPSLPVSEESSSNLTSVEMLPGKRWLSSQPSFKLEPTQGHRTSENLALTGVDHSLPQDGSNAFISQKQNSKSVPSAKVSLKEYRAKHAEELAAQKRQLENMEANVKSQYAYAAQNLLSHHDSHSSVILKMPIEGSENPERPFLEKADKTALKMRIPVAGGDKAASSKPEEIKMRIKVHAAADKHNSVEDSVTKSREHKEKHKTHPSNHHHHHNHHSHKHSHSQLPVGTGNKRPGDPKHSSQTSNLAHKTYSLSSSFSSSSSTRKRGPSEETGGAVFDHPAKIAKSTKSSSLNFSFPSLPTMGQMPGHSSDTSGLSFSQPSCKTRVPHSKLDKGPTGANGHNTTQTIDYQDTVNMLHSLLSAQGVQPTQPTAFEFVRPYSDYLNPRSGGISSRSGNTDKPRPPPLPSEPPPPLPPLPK", "UniProt Q96NT0": "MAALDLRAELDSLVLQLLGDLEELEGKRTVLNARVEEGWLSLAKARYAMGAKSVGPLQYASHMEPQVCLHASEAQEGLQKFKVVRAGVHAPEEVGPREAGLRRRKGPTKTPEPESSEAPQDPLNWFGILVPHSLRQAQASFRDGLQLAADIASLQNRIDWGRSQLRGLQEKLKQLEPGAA", "UniProt Q8IYB1": "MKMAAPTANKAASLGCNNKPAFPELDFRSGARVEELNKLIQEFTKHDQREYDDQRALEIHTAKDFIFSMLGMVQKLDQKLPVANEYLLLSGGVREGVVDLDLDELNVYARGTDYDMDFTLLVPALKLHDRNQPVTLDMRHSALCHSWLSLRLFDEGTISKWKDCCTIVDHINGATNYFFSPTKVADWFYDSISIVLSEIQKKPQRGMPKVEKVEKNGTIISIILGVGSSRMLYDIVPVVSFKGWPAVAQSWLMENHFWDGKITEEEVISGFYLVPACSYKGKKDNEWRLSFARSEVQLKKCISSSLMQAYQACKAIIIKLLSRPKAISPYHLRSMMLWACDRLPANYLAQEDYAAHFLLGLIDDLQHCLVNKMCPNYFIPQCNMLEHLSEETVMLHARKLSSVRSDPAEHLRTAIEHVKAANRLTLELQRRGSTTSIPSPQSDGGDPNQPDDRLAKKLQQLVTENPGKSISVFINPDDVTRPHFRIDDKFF", "UniProt P17655": "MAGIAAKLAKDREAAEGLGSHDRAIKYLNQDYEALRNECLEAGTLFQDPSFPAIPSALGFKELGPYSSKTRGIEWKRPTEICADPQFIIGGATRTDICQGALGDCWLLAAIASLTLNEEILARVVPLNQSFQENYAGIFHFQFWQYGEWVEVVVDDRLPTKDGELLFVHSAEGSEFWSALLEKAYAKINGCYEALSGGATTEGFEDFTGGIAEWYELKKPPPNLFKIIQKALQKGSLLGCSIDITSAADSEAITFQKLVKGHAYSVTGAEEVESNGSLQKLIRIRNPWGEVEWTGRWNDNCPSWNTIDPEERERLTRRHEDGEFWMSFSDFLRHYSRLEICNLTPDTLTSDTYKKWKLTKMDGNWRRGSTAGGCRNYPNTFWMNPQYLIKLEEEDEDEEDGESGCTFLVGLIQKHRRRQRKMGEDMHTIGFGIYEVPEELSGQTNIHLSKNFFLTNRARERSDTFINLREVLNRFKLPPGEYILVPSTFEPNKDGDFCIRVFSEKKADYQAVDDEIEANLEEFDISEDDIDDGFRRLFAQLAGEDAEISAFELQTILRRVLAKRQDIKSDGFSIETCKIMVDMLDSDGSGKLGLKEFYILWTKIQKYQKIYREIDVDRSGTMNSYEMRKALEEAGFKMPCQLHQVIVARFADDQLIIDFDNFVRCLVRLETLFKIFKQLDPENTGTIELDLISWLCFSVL"}, "source": "the supplement of paper PMC7666118", "note": "The other results are listed elsewhere or left out."}
{"compound": "COc1ccc(Cn2ccc3cc(C)c(C(=O)NO)cc32)cc1", "experiment": "dose-dependent thermal stabilisation call (2D-TPP, DLPTP, 10% FDR) (binary (1 = stabilised)); higher = stabilised by the compound", "conditions": "system: HL-60 intact cells; concentration range 0.04-10 µM", "experimental": "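2D thermal proteome profiling in intact HL-60 cells treated with BRD-3811 (0, 0.04, 0.29, 2, 10 uM) for 90 min at 37 C, then heated 3 min at one of 12 temperatures (42-63.9 C). Soluble protein was quantified by TMT10 MS. The value is the DLPTP call of the paper: dose-dependent thermal stabilisation over all temperatures at 10% FDR (F-test of a dose-response against a flat model); one experiment, one call per tested protein.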"}
{"target": "C2ORF44 (UniProt Q9H6R7)", "dose-dependent thermal stabilisation call": "inactive: 0"}
{"target": "CCNC (UniProt P24863)", "dose-dependent thermal stabilisation call": "inactive: 0"}
{"target": "CCDC91 (UniProt Q7Z6B0)", "dose-dependent thermal stabilisation call": "inactive: 0"}
{"target": "CASP2 (UniProt P42575)", "dose-dependent thermal stabilisation call": "inactive: 0"}
{"target": "C8ORF33 (UniProt Q9H7E9)", "dose-dependent thermal stabilisation call": "inactive: 0"}
{"target": "C2ORF68 (UniProt Q2NKX9)", "dose-dependent thermal stabilisation call": "inactive: 0"}
{"target": "CCNT1 (UniProt O60563)", "dose-dependent thermal stabilisation call": "inactive: 0"}
{"target": "CCDC115 (UniProt Q96NT0)", "dose-dependent thermal stabilisation call": "inactive: 0"}
{"target": "C3ORF59 (UniProt Q8IYB1)", "dose-dependent thermal stabilisation call": "inactive: 0"}
{"target": "CAPN2 (UniProt P17655)", "dose-dependent thermal stabilisation call": "inactive: 0"}
